The assay can be described thus: qHTS Assay for Lipid Storage Modulators in Drosophila S3 Cells.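 On cell number change: cells counted by Cell Tracker Red CMTPX staining in the red channel.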 Particulars: BODIPY lipid droplet fluorescence, 18-24 h; for cell number change: measured here: cell count max response, cells fed with added oleic acid. Put shortly: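 Drosophila S3 cells got compounds at several concentrations plus oleic acid (400 uM solution). Laser-scanning cytometry with 488 nm excitation read lipid droplets at 500-530 nm and cells at 575-640 nm. Percent activity was relative to 20 uM Triacsin C.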
In general terms: qHTS replaces the single test concentration by a dilution series.

[1] abbreviates: measured here: cell number channel AC50, cells fed with added oleic acid.
[2] abbreviates: measured here: lipid fluorescence (Fed channel) AC50, cells fed with added oleic acid.

This is an account of results in PubChem BioAssay AID2685 (National Center for Advancing Translational Sciences (NCATS), 2010).

One may read the AC50 as the concentration at which the activity in the assay is half-maximal. A high value points to weaker potency.

This is one part of the list. The main result of the screen is listed elsewhere. These columns were measured beside it and carry no call. Compounds called inactive in the main read-out are mostly missing here. The note in brackets gives the kind of curve behind each potency; many fits are weak.

On to `CC(C)COc1nc2ccccc2nc1C(C#N)C(=O)NC1CCCCC1` (stereo not drawn), for which the cell number change is 99.5%. In addition, the concentration at half-maximal activity (AC50) under setting [1] was 29.1 µM [rising, single point]. In addition, the AC50 under setting [2] is 0.231 µM [rising, full curve, poor fit].
Consider `COCC(C)NC(=O)CCS(=O)(=O)c1nc(-c2ccc(OC)cc2)cc(C(F)(F)F)n1` (stereo not drawn), for which the cell number change worked out at 13.3%. The half-maximal activity concentration (AC50) under setting [2] is 16.4 µM [falling, partial curve].
With `O=C(CSC1=NS(=O)(=O)c2cc(Cl)ccc2N1)NCc1ccccc1`, the AC50 is 0.13 µM [falling, full curve, poor fit] under setting [1] and 1.84 µM [rising, single point] under setting [2].
As for `C#CCOCCOCCOCCNc1nc(N2CCN(C(=O)CCCCCCCCCCNC(=O)[C@H](CCCCN)n3cc(C[C@@H](C)CC)nn3)CC2)nc(N2CCN(C(=O)CCCCCCCCCCNC(=O)[C@H](CCCN=C(N)N)n3cc(C[C@@H](C)CC)nn3)CC2)n1`, the cell number change was -61.6%. For the same compound, the AC50 under setting [1] is 2.91 µM [falling, full curve, poor fit]. In addition, the half-maximal activity concentration (AC50) under setting [2] was 29.1 µM [falling, partial curve, poor fit].
On to `COCCn1c(SCC(=O)Nc2cc(C)on2)nnc1-c1ccco1`, for which the cell number change was determined as 24.5%. Moreover, under setting [2], the concentration at half-maximal activity (AC50) was 20.6 µM [falling, single point].
As for `CCn1c(=O)n(CC)c2cc(N3CCCC3)c(NC(=O)c3ccccc3OC)cc21`, the cell number change is -23%. The concentration at half-maximal activity (AC50) under setting [2] was 0.00651 µM [falling, full curve, poor fit].
As for `N#Cc1c(SCC(=O)Nc2ccc(Cl)cc2Cl)sc2c(O)cc(=O)[nH]c12`, the cell number change was 12%. For the same compound, the concentration at half-maximal activity (AC50) under setting [2] is 25.9 µM [rising, partial curve, poor fit].
Turning to `CCCS(=O)(=O)c1c(S(=O)(=O)CCC)c2c(C)cccn2c1C(=O)N/N=C/c1cc(O)cc(O)c1`, the cell number change is -21.3%. Also, the half-maximal activity concentration (AC50) under setting [2] was 20.6 µM [falling, single point].
As for `CC(=O)N(C)c1ccc(NC(=S)NCC(C)C)cc1`, the cell number change is 24.3%.
On the same count and under the same terms, under `O=C(NCC1CCCO1)c1cc2ccccc2oc1=O` (stereo not drawn) stands 16.3%.
In the case of `COc1cc(C#Cc2ccc3cc(CCCO)oc(=O)c3c2)cc(OC)c1`, under setting [2], the half-maximal activity concentration (AC50) was 0.146 µM [rising, single point].
On to `CCOC(=O)NC(=S)Nc1ccc(OC)cc1`, for which the cell number change is -20.1%.
On to `CN(C)c1ccc(/C=N\S(=O)(=O)c2ccccc2)cc1`, for which the cell number change is -22.6%. Besides, the concentration at half-maximal activity (AC50) under setting [2] is 0.366 µM [falling, full curve].
As for `O=S(=O)(c1cccc(NC(=S)N2CCN(c3ccccc3)CC2)c1)C(F)F`, the cell number change is 14.4%. Further, the concentration at half-maximal activity (AC50) under setting [2] was 3.26 µM [rising, single point].
For the compound `COc1ccc(CNC(=O)CCN2C(=S)NC(C)(C)CC2C)cc1` (stereo not drawn), the concentration at half-maximal activity (AC50) under setting [1] is 6.51 µM [rising, single point].
As to `CCS(=O)(=O)c1ccc2oc(Nc3ccccc3Br)nc2c1`, the cell number change is -6.58%. Further, the AC50 under setting [1] was 1.16 µM [falling, full curve]. Further, the AC50 under setting [2] was 0.92 µM [falling, full curve].
`COc1ccc(/C=C/C(=O)NCc2cn(C)nc2C)cc1COc1ccc(Br)cc1`: the cell number change is -21.6%. Besides, under setting [2], the concentration at half-maximal activity (AC50) is 23.1 µM [falling, single point].
`CCOC(=O)C1CCN(C(=O)CCCn2nc(C)c3c(C)n(-c4ccc(C)cc4)nc3c2=O)CC1`: the cell number change is 4.18%.
With `O=C(c1ccc2c(=O)n(-c3ccccc3)c(=S)[nH]c2c1)N1CCCCC1`, the cell number change was -49.3%. Moreover, the AC50 under setting [1] is 14.6 µM [falling, single point]. Besides, the AC50 under setting [2] was 9.2 µM [falling, partial curve].
In the case of `O=C(Cn1ncc2c([nH]c3ccccc32)c1=O)N1CCN(c2ccc(F)cc2)CC1`, the cell number change came to 29.5%.
For `Cc1nnc2ccc(-c3ccc(NS(=O)(=O)c4ccc(Cl)s4)cc3)nn12`, the cell number change is -13.2%. Further, under setting [2], the AC50 is 0.58 µM [falling, single point].
With `CC(=O)Nc1ccc(C(=O)OCCCOC(=O)c2ccc(NC(C)=O)cc2)cc1`, the cell number change amounted to 2.51%. The half-maximal activity concentration (AC50) under setting [2] is 1.84 µM [rising, partial curve].
On to `COc1ccccc1NC(=O)C(C)OC(=O)C1COc2ccccc2O1` (stereo not drawn), for which the cell number change is -12.9%. The half-maximal activity concentration (AC50) under setting [2] was 0.00411 µM [falling, full curve, poor fit].
Turning to `O=C(CN1C(=O)C2C3C=CC(C4CC34)C2C1=O)Oc1ccccc1` (stereo not drawn), the cell number change is 52.2%. Under setting [1], the concentration at half-maximal activity (AC50) was 3.26 µM [falling, single point]. Further, the AC50 under setting [2] was 3.26 µM [falling, single point].
For `CC/C(=N\O)c1c(O)c2c(n(-c3ccccc3)c1=O)CCCC2`, the cell number change is -28.5%. The AC50 under setting [2] was 5.8 µM [falling, full curve].
With `COc1cccc(OC)c1C(=O)Nc1ccccc1N1CCCC1`, the cell number change was 21.7%. In addition, under setting [2], the concentration at half-maximal activity (AC50) was 9.2 µM [rising, partial curve].
`CCC(=O)NC(=S)Nc1cccc(-c2nc3ncccc3o2)c1`: the cell number change is -16.7%. Further, the AC50 under setting [1] is 0.13 µM [falling, full curve, poor fit]. Further, the AC50 under setting [2] was 0.259 µM [rising, partial curve, poor fit].
On to `CCc1ccc(NC2=CC(=O)CC(c3ccco3)C2)cc1` (stereo not drawn), for which the cell number change came to 107%. Also, the AC50 under setting [1] was 23.1 µM [rising, single point].
As for `C#CC(C)OC(=O)C(C)NC(=O)c1ccccc1` (stereo not drawn), the cell number change was found to be 6.51%. Also, under setting [2], the AC50 was 0.259 µM [falling, full curve, poor fit].
Turning to `NC(=O)c1sc2nc3c(c(-c4cccs4)c2c1N)CCCCC3`, the AC50 under setting [1] was 0.13 µM [rising, full curve, poor fit].
As to `CC1Oc2ccccc2OC1C(=O)Nc1nccs1` (stereo not drawn), the cell number change was found to be 36.9%. Besides, the half-maximal activity concentration (AC50) under setting [1] was 20.6 µM [rising, partial curve, poor fit]. Further, under setting [2], the half-maximal activity concentration (AC50) is 5.8 µM [rising, full curve, poor fit].
In the case of `Cc1cc(C)cc(NC(=O)Cn2cc3c(n2)CCCCC3)c1`, the cell number change was -25.4%. Further, under setting [2], the concentration at half-maximal activity (AC50) was 16.4 µM [falling, single point].
On to `Cc1ccc(NC2=CC(=O)CC(C)(C)C2)cc1C`, for which the cell number change came out at 5.01%.
For `CCOC(=O)c1nnn(-c2nc(OC)nc(N(C)C)n2)c1-c1ccccc1`, the cell number change is -26.5%. The half-maximal activity concentration (AC50) under setting [2] was 25.9 µM [falling, single point].
As for `O=C(CSc1nc(=O)n2ccccc2n1)Nc1ccc2c(c1)OCCO2`, the cell number change is -16.8%. The AC50 under setting [2] is 2.06 µM [falling, partial curve].
For `CCN1CCN(S(=O)(=O)Cc2ccccc2)CC1`, the cell number change was -90.5%. Moreover, the AC50 under setting [1] was 29.1 µM [falling, single point]. Besides, the AC50 under setting [2] was 29.1 µM [falling, single point].
On to `Cc1ccccc1C(=O)Nc1ccc(S(=O)(=O)N2CC(C)OC(C)C2)cc1` (stereo not drawn), for which the cell number change was -1.8%. Also, the AC50 under setting [2] is 29.1 µM [falling, single point].
